Measurements taken from the supplement of paper PMC10849652.
The other results are listed elsewhere or left out.

By UniProt entry, the sequences of proteins in these tests, tags left out. Where a name states a change or a piece, a line headed by the entry shows the natural chain unless it says otherwise.
UniProt Q96G74: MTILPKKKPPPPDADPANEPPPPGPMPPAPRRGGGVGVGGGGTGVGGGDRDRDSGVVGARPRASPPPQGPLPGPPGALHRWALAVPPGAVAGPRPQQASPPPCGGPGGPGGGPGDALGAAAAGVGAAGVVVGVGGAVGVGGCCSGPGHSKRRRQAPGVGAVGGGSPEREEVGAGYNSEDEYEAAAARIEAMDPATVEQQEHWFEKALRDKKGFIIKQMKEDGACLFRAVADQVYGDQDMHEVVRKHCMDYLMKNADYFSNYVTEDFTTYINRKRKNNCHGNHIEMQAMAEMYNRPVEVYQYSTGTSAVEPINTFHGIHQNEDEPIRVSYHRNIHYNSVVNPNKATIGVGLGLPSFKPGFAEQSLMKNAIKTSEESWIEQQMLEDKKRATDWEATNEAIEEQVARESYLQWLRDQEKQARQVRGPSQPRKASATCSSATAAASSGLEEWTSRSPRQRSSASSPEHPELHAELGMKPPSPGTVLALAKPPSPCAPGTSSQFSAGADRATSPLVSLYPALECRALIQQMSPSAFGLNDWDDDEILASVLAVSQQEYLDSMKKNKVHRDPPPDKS
UniProt Q9NRP0: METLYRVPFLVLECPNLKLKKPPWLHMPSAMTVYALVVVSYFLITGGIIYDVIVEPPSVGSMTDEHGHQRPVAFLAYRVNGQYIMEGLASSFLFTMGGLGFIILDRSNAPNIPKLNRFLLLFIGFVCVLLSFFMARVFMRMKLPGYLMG
UniProt Q9UBD5: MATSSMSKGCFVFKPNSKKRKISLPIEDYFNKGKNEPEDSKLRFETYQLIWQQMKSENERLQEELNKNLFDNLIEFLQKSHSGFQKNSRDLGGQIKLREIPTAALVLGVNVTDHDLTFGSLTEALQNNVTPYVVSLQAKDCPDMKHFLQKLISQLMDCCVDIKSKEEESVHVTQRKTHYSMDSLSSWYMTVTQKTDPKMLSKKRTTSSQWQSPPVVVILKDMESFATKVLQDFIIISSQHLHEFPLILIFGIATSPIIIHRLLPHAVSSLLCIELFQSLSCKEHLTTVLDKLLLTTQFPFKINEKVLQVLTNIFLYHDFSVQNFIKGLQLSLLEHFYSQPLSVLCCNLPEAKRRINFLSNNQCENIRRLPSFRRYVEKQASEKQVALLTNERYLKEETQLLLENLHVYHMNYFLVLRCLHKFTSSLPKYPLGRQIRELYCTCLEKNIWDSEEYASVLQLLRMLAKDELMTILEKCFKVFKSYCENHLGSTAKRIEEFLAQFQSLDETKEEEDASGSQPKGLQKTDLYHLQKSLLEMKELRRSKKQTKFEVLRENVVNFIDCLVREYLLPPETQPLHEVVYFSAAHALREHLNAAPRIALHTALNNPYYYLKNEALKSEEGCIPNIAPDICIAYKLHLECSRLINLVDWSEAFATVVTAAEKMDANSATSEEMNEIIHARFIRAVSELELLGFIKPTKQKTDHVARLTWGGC
UniProt O15504: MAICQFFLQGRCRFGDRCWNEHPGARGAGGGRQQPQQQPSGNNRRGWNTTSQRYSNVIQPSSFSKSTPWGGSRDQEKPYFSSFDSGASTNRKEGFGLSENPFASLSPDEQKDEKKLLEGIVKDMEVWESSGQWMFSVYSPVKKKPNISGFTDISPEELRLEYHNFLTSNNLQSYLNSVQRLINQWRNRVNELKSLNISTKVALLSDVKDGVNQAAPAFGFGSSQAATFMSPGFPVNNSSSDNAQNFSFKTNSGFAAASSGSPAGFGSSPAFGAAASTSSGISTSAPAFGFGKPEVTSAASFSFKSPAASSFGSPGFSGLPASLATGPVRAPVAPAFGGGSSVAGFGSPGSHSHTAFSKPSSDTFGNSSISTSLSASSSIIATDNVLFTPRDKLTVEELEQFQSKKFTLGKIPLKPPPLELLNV
UniProt O15294: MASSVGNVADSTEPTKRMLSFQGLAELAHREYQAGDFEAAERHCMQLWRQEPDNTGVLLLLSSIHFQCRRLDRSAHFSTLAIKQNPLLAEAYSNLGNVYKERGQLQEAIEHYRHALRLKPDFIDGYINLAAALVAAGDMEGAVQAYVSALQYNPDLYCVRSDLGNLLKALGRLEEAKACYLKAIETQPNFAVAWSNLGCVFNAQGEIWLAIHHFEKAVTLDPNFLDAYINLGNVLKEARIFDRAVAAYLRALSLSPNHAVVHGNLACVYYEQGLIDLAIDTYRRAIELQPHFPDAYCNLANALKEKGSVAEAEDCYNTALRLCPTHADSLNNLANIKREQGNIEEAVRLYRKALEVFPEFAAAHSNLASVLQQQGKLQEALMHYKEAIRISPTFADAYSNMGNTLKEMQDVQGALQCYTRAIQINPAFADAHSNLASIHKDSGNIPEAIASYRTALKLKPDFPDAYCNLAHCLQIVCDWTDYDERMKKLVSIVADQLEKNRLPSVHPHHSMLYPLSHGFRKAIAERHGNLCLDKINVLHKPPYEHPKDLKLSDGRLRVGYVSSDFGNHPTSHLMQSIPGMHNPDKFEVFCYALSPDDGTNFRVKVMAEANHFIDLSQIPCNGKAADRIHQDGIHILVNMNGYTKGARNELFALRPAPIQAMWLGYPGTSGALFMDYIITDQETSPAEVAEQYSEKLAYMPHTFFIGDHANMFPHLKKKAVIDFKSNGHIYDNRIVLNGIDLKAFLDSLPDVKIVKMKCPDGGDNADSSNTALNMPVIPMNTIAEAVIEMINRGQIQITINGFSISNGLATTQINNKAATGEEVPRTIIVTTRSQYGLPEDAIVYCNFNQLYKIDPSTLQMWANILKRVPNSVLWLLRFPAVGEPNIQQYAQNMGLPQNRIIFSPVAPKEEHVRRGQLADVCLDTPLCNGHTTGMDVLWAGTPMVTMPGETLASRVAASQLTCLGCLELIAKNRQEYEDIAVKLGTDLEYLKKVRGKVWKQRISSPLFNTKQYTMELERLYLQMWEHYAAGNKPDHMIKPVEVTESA
UniProt Q9BZF1: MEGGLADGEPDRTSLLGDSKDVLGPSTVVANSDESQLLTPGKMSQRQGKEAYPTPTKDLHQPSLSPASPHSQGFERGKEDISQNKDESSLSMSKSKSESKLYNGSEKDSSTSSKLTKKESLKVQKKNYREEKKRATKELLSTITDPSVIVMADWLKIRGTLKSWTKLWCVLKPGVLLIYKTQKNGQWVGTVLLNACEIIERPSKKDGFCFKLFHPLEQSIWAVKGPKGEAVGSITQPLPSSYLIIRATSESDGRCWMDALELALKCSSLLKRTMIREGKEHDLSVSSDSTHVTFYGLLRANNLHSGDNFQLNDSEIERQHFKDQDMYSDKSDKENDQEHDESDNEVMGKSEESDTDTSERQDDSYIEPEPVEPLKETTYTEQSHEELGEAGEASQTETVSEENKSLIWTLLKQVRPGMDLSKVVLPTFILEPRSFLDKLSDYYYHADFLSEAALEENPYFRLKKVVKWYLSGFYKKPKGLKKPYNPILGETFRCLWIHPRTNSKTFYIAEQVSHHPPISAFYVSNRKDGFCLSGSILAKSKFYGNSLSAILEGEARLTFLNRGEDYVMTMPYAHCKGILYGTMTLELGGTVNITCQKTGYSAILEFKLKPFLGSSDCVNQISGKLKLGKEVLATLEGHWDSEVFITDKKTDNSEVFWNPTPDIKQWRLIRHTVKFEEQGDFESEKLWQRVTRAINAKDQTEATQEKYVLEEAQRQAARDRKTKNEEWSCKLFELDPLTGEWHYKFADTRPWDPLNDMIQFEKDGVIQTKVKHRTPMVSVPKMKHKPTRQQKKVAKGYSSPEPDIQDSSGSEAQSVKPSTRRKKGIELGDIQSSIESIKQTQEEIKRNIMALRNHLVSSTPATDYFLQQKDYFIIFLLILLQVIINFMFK
UniProt Q9H857: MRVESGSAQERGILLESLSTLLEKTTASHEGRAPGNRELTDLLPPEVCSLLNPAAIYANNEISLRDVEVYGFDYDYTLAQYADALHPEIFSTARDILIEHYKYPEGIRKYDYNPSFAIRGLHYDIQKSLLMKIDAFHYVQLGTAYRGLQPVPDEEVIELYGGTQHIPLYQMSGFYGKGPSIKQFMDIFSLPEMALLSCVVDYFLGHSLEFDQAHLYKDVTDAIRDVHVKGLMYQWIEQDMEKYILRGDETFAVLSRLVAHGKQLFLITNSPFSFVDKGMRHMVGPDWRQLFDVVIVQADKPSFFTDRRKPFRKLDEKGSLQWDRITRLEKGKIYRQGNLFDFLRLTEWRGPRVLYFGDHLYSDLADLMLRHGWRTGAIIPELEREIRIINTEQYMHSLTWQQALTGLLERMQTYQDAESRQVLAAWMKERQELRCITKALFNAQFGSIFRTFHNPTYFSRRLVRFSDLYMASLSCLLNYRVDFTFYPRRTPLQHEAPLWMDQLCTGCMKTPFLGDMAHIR

Legend:
Assay in all cases: log2 fold change, soluble protein after heating vs DMSO (PISA); higher = thermal stabilisation; K562 cells, 10 uM, 30 min; active = over 0.2 and 3.5 SD of the protein, either way, in both replicates (recomputed)
[1] = compound: COC1=CC=C(C=C1)CN2C=CC3=C2C=C(C=C3)C(=O)NO
Procedure, shortened: (§1)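 Values are thermal stability changes relative to control samples and are taken from duplicates. They are stated as log2 fold changes. Before quantification by TMTpro 16plex LC-MS/MS with equalised channel sums, K562 cells at 2×10^6 cells/mL were treated with 10 μM compound for 30 min, heated in aliquots for 3 min across 48°C-58°C, pooled, extracted in PBS with 0.5% NP-40 at 4°C, and centrifuged at 21,000xg for 90 min to give the soluble supernatant.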

filanesib = compound: CON(C)C(=O)N1N=C(c2cc(F)ccc2F)S[C@@]1(CCCN)c1ccccc1 [filanesib]
Procedure, shortened: as §1

zotarolimus = compound: CO[C@H]1C[C@@H]2CC[C@@H](C)[C@@](O)(O2)C(=O)C(=O)N2CCCC[C@H]2C(=O)O[C@H]([C@H](C)C[C@@H]2CC[C@H](n3cnnn3)[C@H](OC)C2)CC(=O)[C@H](C)/C=C(\C)[C@@H](O)[C@@H](OC)C(=O)[C@H](C)C[C@H](C)/C=C/C=C/C=C/1C [zotarolimus]
Procedure, shortened: as §1

idasanutlin = compound: COc1cc(C(=O)O)ccc1NC(=O)[C@@H]1N[C@@H](CC(C)(C)C)[C@](C#N)(c2ccc(Cl)cc2F)[C@H]1c1cccc(Cl)c1F [idasanutlin]
Procedure, shortened: as §1

alisertib = compound: COc1cc(Nc2ncc3c(n2)-c2ccc(Cl)cc2C(c2c(F)cccc2OC)=NC3)ccc1C(=O)O [alisertib]
Procedure, shortened: as §1

[2] = compound: COc1cc2nc(-c3cc(F)ccc3O)nc(N[C@@H]3CNC[C@H]3C(C)(C)O)c2cc1OC
Procedure, shortened: as §1

gefitinib = compound: COc1cc2ncnc(Nc3ccc(F)c(Cl)c3)c2cc1OCCCN1CCOCC1 [gefitinib]
Procedure, shortened: as §1

[3] = compound: COc1cccc2cc(-c3nc([C@H]4CC[C@H](C(=O)O)CC4)n4ncnc(N)c34)[nH]c12
Procedure, shortened: as §1

lapatinib = compound: CS(=O)(=O)CCNCc1ccc(-c2ccc3ncnc(Nc4ccc(OCc5cccc(F)c5)c(Cl)c4)c3c2)o1 [lapatinib]
Procedure, shortened: as §1

pictilisib = compound: CS(=O)(=O)N1CCN(Cc2cc3nc(-c4cccc5[nH]ncc45)nc(N4CCOCC4)c3s2)CC1 [pictilisib]
Procedure, shortened: as §1

[4] = compound: CS(=O)(=O)c1ccc(-c2cnc(N)c(C(=O)Nc3ccccc3)n2)cc1
Procedure, shortened: as §1

crizotinib = compound: C[C@@H](Oc1cc(-c2cnn(C3CCNCC3)c2)cnc1N)c1c(Cl)ccc(F)c1Cl [crizotinib]
Procedure, shortened: as §1

[5] = compound: C[C@@H]1COCCN1C2=NC(=NC(=C2)C3(CC3)S(=O)(=O)C)C4=C5C=CNC5=CC=C4
Procedure, shortened: as §1

[6] = compound: C[C@H](C1=CC=C(C=C1)C(=O)NC2=C3C=CNC3=NC=C2)N
Procedure, shortened: as §1

duvelisib = compound: C[C@H](Nc1ncnc2nc[nH]c12)c1cc2cccc(Cl)c2c(=O)n1-c1ccccc1 [duvelisib]
Procedure, shortened: as §1

gandotinib = compound: Cc1cc(Nc2cc(CN3CCOCC3)c3nc(C)c(Cc4ccc(Cl)cc4F)n3n2)n[nH]1 [gandotinib]
Procedure, shortened: as §1

tozasertib = compound: Cc1cc(Nc2cc(N3CCN(C)CC3)nc(Sc3ccc(NC(=O)C4CC4)cc3)n2)n[nH]1 [tozasertib]
Procedure, shortened: as §1

[7] = compound: Cc1cc(SCc2sc(-c3ccc(C(F)(F)F)cc3)nc2C)ccc1OCC(=O)O
Procedure, shortened: as §1

doramapimod = compound: Cc1ccc(-n2nc(C(C)(C)C)cc2NC(=O)Nc2ccc(OCCN3CCOCC3)c3ccccc23)cc1 [doramapimod]
Procedure, shortened: as §1

ispinesib = compound: Cc1ccc(C(=O)N(CCCN)[C@@H](c2nc3cc(Cl)ccc3c(=O)n2Cc2ccccc2)C(C)C)cc1 [ispinesib]
Procedure, shortened: as §1

Target | log2 fold change [1] | log2 fold change (filanesib) | log2 fold change (zotarolimus) | log2 fold change (idasanutlin) | log2 fold change (alisertib) | log2 fold change [2] | log2 fold change (gefitinib) | log2 fold change [3] | log2 fold change (lapatinib) | log2 fold change (pictilisib) | log2 fold change [4] | log2 fold change (crizotinib) | log2 fold change [5] | log2 fold change [6] | log2 fold change (duvelisib) | log2 fold change (gandotinib) | log2 fold change (tozasertib) | log2 fold change [7] | log2 fold change (doramapimod) | log2 fold change (ispinesib)
OTUD5 isoform 5 (UniProt Q96G74) | inactive: -0.024 | inactive: 0.011 | inactive: 0.062 | inactive: 0.022 | inactive: -0.06 | inactive: -0.081 | inactive: -0.002 | inactive: 0.082 | inactive: 0.023 | inactive: 0.143 | inactive: 0.04 | inactive: 0.097 | inactive: 0.05 | inactive: -0.075 | inactive: -0.027 | inactive: -0.1 | inactive: 0.023 | inactive: -0.049 | inactive: -0.017 | inactive: 0.104
OSTC (UniProt Q9NRP0) | inactive: -0.05 | inactive: -0.171 | inactive: -0.105 | inactive: -0.041 | inactive: -0.101 | inactive: -0.184 | inactive: 0.018 | inactive: 0.026 | inactive: -0.041 | inactive: 0.162 | inactive: 0.044 | inactive: -0.047 | inactive: 0.132 | inactive: -0.089 | – | inactive: -0.112 | – | inactive: -0.042 | inactive: 0.028 | inactive: -0.117
ORC3 isoform 2 (UniProt Q9UBD5) | inactive: 0.071 | inactive: 0.043 | inactive: 0.064 | inactive: 0.265 | inactive: -0.058 | inactive: -0.002 | inactive: 0.006 | inactive: -0.068 | inactive: 0.031 | inactive: 0.027 | inactive: -0.054 | active: -0.434 | inactive: 0.015 | inactive: -0.005 | – | inactive: -0.044 | – | inactive: 0.177 | inactive: 0.016 | inactive: -0.17
NUP42 (UniProt O15504) | inactive: -0.026 | inactive: 0.381 | inactive: 0.025 | inactive: 0.239 | inactive: 0.025 | inactive: 0.041 | inactive: -0.032 | inactive: 0.149 | inactive: 0.127 | inactive: -0.064 | inactive: 0 | inactive: -0.027 | inactive: -0.812 | inactive: 0.415 | inactive: -0.141 | inactive: 0.304 | inactive: 0.073 | inactive: -0.012 | inactive: 0.392 | inactive: -0.167
NUDT5 (UniProt Q9UKK9) | inactive: 0.073 | inactive: -0.023 | inactive: -0.017 | inactive: 0.016 | inactive: -0.03 | inactive: -0.001 | inactive: -0.015 | inactive: 0.077 | inactive: -0.027 | inactive: -0.003 | inactive: 0.001 | inactive: -0.005 | inactive: 0.033 | inactive: -0.037 | inactive: -0.043 | inactive: 0.01 | inactive: -0.018 | inactive: -0.065 | inactive: -0.043 | inactive: 0.094
OGT (UniProt O15294) | inactive: -0.006 | inactive: -0.01 | inactive: 0.038 | inactive: -0.01 | inactive: 0.002 | inactive: 0.059 | inactive: 0.004 | inactive: -0.022 | inactive: -0.022 | inactive: -0.012 | inactive: 0.028 | inactive: 0.01 | inactive: 0.003 | inactive: 0.014 | inactive: 0.019 | inactive: -0.016 | inactive: 0.012 | inactive: 0.049 | inactive: -0.007 | inactive: 0.041
OSBPL8 (UniProt Q9BZF1) | inactive: 0.034 | inactive: 0.077 | inactive: -0.067 | inactive: -0.016 | inactive: -0.052 | inactive: -0.086 | inactive: 0.23 | inactive: -0.22 | inactive: 0.142 | inactive: -0.015 | inactive: 0.019 | inactive: -0.179 | inactive: -0.043 | inactive: 0.219 | – | inactive: -0.105 | – | inactive: 0.103 | inactive: 0.078 | inactive: -0.433
NT5DC2 isoform 2 (UniProt Q9H857) | inactive: -0.005 | inactive: -0.046 | inactive: -0.007 | inactive: -0.076 | inactive: -0.076 | inactive: 0.015 | inactive: 0.017 | inactive: 0.087 | inactive: 0.017 | inactive: 0.01 | inactive: 0 | inactive: 0.048 | inactive: 0.054 | inactive: -0.081 | inactive: 0.022 | inactive: 0.04 | inactive: -0.016 | inactive: -0.016 | inactive: -0.053 | inactive: 0.076

Shown in CSV form: entries from further up
Target,log2 fold change [1],log2 fold change (filanesib),log2 fold change (zotarolimus),log2 fold change (idasanutlin),log2 fold change (alisertib),log2 fold change [2],log2 fold change (gefitinib),log2 fold change [3],log2 fold change (lapatinib),log2 fold change (pictilisib),log2 fold change [4],log2 fold change (crizotinib),log2 fold change [5],log2 fold change [6],log2 fold change (duvelisib),log2 fold change (gandotinib),log2 fold change (tozasertib),log2 fold change [7],log2 fold change (doramapimod),log2 fold change (ispinesib)
NUP42 (UniProt O15504),inactive: -0.026,inactive: 0.381,inactive: 0.025,inactive: 0.239,inactive: 0.025,inactive: 0.041,inactive: -0.032,inactive: 0.149,inactive: 0.127,inactive: -0.064,inactive: 0,inactive: -0.027,inactive: -0.812,inactive: 0.415,inactive: -0.141,inactive: 0.304,inactive: 0.073,inactive: -0.012,inactive: 0.392,inactive: -0.167
NUDT5 (UniProt Q9UKK9),inactive: 0.073,inactive: -0.023,inactive: -0.017,inactive: 0.016,inactive: -0.03,inactive: -0.001,inactive: -0.015,inactive: 0.077,inactive: -0.027,inactive: -0.003,inactive: 0.001,inactive: -0.005,inactive: 0.033,inactive: -0.037,inactive: -0.043,inactive: 0.01,inactive: -0.018,inactive: -0.065,inactive: -0.043,inactive: 0.094
